Assay results as given in publication PMC11071249.
These are yes or no findings as the source states them, for the method shown. Binding seen in cells or lysates may run through a third protein. A yes stands for co-enrichment or nearness to the bait. Other partners may have been found.

Protein sequences, listed by entry. Tags and fused reporters are not part of them.
UniProt Q9Y4B6: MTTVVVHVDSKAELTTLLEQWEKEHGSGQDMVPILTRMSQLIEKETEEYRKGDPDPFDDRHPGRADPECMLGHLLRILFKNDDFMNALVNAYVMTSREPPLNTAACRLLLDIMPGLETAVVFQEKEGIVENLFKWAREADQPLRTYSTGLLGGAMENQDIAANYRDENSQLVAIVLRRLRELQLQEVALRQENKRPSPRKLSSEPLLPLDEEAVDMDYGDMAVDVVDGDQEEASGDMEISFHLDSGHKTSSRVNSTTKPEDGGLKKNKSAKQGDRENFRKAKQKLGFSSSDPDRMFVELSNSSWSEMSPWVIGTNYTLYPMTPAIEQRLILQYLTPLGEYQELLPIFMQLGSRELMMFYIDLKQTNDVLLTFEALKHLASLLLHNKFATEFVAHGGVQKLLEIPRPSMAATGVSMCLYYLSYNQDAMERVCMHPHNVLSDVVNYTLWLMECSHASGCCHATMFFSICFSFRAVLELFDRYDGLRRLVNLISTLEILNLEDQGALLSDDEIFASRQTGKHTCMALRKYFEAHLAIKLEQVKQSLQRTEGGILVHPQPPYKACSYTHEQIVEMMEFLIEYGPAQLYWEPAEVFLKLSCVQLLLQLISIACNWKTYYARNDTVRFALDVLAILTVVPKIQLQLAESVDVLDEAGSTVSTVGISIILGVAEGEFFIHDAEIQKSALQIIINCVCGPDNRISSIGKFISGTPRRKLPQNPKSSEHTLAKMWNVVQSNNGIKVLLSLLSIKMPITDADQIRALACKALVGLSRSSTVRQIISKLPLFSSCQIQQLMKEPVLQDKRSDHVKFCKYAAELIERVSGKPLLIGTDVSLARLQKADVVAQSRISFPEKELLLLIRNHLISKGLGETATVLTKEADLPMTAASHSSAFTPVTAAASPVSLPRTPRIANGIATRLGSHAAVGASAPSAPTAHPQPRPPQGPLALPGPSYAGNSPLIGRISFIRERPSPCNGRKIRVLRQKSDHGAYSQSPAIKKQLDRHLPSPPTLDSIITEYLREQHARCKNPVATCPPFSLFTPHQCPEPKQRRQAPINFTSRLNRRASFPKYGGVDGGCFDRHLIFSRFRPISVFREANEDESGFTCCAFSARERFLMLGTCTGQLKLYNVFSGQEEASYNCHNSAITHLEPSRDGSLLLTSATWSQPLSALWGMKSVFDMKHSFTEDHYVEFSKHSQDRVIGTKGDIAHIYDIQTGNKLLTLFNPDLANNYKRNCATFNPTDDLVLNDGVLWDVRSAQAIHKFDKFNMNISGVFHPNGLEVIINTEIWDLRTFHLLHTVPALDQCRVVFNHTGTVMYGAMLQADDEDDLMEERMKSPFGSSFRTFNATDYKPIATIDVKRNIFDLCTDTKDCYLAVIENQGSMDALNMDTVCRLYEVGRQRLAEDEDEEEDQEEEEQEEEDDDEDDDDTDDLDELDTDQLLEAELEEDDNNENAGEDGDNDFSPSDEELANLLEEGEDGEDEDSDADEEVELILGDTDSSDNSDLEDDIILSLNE
UniProt Q8TEW0: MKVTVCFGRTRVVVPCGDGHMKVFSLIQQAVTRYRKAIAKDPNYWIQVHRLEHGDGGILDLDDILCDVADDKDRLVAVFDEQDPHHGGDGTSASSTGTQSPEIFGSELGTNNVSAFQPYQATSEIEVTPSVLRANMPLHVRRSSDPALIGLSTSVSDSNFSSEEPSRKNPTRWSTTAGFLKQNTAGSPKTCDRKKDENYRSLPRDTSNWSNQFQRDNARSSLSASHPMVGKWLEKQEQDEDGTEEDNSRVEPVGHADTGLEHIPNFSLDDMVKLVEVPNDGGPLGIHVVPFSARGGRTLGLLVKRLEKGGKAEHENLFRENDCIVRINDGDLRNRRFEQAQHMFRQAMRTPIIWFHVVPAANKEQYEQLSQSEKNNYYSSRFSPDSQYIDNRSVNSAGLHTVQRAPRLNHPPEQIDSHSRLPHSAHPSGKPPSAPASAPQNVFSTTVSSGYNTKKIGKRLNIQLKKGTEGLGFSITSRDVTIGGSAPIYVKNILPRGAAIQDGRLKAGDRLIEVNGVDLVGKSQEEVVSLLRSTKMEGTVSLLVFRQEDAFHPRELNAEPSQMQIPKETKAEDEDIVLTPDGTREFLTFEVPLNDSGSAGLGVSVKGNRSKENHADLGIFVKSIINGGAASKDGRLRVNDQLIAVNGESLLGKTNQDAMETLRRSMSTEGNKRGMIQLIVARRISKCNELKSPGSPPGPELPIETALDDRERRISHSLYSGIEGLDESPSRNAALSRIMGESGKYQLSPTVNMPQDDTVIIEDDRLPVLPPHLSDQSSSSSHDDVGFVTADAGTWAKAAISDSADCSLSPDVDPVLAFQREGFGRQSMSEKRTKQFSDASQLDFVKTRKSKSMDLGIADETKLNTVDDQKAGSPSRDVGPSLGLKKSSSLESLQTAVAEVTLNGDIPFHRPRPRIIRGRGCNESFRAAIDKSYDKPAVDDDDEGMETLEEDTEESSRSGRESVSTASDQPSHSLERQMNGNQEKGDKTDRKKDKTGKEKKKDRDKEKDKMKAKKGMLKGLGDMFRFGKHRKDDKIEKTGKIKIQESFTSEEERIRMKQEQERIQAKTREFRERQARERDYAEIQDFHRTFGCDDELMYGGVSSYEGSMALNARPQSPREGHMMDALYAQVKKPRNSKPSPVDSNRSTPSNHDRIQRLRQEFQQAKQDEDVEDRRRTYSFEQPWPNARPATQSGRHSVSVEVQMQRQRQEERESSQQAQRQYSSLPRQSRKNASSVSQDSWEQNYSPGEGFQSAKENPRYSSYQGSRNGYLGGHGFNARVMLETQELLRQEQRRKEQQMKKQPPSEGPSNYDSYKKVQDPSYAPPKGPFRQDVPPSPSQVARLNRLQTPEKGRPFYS

Target: DDB1 and CUL4 associated factor 1 (DCAF1) (UniProt Q9Y4B6)
Experiment: affinity purification with mass spectrometry; lysate of HepG2 cells overexpressing DCAF1, immunoprecipitated with DCAF1 primary antibody; SDS-PAGE, digestion, LC-MS/MS

par-3 family cell polarity regulator (PARD3) (from UniProt Q8TEW0 1-1356)
binding: binds
